Assay results: doi:10.1101/050617
No constants are given. Whether binding was seen depends on the method and setting. For part of these data: In cells and extracts the contact can be indirect. Some binding calls cover weakened binding; strength is not graded here.

The chains behind the UniProt entries cited, without tags or fusion partners. Where a name states a change or a piece, a line headed by the entry shows the natural chain unless it says otherwise.
UniProt P00842: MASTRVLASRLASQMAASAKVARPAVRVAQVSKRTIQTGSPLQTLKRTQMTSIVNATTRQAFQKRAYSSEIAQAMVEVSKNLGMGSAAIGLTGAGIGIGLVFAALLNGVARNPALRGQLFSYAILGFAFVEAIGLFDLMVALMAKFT

B1: ornithine carbamoyltransferase (OTC) precursor protein (protein, UniProt P00480 1-354)
chain: MLFNLRILLNNAAFRNGHNFMVRNFRCGQPLQNKVQLKGRDLLTLKNFTGEEIKYMLWLSADLKFRIKQKGEYLPLLQGKSLGMIFEKRSTRTRLSTETGFALLGGHPCFLTTQDIHLGVNESLTDTARVLSSMADAVLARVYKQSDLDTLAKEASIPIINGLSDLYHPIQILADYLTLQEHYSSLKGLTLSWIGDGNNILHSIMMSAAKFGMHLQAATPKGYEPDASVTKLAEQYAKENGTKLLLTNDPLEAAHGGNVLITDTWISMGQEEEKKKRLQAFQGYQVTMKTAKVAASDWTFLHCLPRKPEEVDDEVFYSPRSLVFPEAENRKWTIMAVMVSLLTDYSPQLQKPKF
modifications: [35S]-methionine/cysteine label

Legend:
[1] = biological target: Su9(86)-DHFR (Neurospora crassa | mouse) (UniProt P00842); assay: filter retardation assay
[2] = biological target: Su9(86)-DHFR (Neurospora crassa | mouse) (UniProt P00842); assay: co-sedimentation
[3] = biological target: ornithine carbamoyltransferase (OTC) precursor protein (UniProt P00480); assay: filter retardation assay

Molecule	binding [1]	binding [2]	binding [3]
Su9(86)-DHFR (from UniProt P00842 1-86; P00375 1-187)	binds weakly	binds	
B1			binds weakly
